Results taken from PubChem BioAssay AID493089 (Broad Institute, 2011).
All entries are inconclusive by the source's own rule. Clear calls are listed elsewhere.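 How the source made its calls: active means fitted half-maximal dose no more than ten times the top valid dose tested, with signal falling; inconclusive means flat curve at 30 to 70% inhibition, or poor fit; inactive means the rest, including rising signal.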

Test: growth inhibition of fluconazole-resistant C. albicans, confirmation, CaCi-2 isolate, dry powder retest, set 2 (AID 493089)
Conditions: C. albicans CaCi-2 + fluconazole growth, Alamar Blue, 48 h; at 12 µM (top of the series)
Procedure, shortened: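 test system = C. albicans CaCi-2, fluconazole-resistant isolate | amount = fungal inoculum at starting OD600 of 0.00015 | buffer or medium = RPMI-based defined medium with MOPS plus 8 µg/mL fluconazole | timing = 48 h compound exposure, 37 °C, 90% humidity, 2 h dye | signal = Alamar Blue fluorescence, Ex 544 nm, Em 590 nm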

COc1ccc2c(c1)c1nc3n(c(=O)c1n2CC(=O)N1CCC(Cc2ccccc2)CC1)CCS3
activity change, negative = inhibition: inconclusive: -33.7%
